Amino acid sequences for entries named in this document (tags omitted). A change or cut given only in a name is not applied to a line headed by its entry.
UniProt Q9HB07: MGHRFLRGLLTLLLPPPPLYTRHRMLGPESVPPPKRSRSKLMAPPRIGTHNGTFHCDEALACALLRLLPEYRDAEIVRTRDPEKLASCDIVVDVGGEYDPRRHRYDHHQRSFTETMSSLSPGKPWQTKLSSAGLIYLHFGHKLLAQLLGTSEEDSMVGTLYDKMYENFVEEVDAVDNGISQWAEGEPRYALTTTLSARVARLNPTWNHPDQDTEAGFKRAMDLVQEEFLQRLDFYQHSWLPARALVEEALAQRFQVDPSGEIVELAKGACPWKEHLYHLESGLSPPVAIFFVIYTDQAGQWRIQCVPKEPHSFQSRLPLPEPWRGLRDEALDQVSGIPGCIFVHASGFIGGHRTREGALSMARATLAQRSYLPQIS
UniProt Q7Z3D6: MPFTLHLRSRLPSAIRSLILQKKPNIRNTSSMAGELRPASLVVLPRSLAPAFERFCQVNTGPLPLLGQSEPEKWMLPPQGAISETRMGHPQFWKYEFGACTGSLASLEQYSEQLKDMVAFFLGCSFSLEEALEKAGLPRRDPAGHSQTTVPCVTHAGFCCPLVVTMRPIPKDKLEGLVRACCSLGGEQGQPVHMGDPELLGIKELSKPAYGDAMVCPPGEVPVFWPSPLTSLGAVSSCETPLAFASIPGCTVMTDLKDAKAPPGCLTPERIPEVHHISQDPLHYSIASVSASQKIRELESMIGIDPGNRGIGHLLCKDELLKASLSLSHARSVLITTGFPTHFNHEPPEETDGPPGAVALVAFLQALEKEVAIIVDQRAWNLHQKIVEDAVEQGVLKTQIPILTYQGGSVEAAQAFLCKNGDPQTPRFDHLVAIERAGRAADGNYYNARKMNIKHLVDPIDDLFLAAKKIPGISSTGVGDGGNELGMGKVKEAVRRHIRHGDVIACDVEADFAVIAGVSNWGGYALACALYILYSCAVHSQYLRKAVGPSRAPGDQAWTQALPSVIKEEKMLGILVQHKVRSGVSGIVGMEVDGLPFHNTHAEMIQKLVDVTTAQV
UniProt Q99728: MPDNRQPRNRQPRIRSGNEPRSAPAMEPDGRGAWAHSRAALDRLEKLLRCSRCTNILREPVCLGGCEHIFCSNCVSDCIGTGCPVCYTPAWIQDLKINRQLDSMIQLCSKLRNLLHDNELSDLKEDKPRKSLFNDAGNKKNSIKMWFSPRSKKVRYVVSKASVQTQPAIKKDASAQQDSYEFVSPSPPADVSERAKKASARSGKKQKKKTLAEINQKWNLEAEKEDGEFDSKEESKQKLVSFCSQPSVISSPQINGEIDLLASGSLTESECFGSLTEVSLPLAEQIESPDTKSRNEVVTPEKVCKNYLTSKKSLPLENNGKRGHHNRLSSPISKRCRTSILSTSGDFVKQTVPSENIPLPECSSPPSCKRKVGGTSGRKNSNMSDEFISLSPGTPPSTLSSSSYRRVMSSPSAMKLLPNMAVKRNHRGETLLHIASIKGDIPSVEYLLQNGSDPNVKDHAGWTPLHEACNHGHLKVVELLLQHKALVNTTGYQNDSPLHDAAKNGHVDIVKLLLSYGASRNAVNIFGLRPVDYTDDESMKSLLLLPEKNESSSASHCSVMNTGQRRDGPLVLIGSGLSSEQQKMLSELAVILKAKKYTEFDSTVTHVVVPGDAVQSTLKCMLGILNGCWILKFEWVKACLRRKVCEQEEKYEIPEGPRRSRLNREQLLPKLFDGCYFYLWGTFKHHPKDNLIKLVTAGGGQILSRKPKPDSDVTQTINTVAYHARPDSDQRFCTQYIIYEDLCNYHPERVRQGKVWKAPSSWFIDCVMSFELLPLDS
UniProt Q5UCC4: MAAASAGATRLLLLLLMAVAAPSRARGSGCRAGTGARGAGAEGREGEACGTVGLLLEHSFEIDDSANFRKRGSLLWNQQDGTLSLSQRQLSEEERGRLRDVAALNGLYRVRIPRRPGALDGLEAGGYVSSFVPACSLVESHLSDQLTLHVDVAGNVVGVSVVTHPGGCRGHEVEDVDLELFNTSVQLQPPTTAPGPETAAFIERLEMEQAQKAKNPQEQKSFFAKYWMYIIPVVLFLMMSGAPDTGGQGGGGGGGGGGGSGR
UniProt Q8TDN6: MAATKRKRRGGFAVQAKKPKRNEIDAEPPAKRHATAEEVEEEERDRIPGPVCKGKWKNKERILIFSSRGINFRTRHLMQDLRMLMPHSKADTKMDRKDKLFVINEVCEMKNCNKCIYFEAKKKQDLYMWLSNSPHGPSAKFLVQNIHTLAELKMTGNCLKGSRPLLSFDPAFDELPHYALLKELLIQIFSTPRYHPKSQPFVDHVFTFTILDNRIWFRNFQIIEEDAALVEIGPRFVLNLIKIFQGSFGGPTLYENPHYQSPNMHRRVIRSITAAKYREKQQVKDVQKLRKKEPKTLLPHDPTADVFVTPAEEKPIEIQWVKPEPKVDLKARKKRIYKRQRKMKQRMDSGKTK
UniProt Q9H3K6: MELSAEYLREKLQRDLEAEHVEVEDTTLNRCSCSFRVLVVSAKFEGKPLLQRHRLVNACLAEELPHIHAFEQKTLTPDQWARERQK
UniProt P55957: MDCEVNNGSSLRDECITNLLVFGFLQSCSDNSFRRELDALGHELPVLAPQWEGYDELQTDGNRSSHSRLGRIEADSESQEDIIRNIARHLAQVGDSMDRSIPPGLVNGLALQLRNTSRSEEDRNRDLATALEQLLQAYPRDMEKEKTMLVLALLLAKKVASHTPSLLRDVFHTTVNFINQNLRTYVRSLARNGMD
UniProt O00244: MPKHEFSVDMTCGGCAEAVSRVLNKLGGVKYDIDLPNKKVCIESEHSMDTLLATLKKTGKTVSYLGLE
UniProt Q9BUA3: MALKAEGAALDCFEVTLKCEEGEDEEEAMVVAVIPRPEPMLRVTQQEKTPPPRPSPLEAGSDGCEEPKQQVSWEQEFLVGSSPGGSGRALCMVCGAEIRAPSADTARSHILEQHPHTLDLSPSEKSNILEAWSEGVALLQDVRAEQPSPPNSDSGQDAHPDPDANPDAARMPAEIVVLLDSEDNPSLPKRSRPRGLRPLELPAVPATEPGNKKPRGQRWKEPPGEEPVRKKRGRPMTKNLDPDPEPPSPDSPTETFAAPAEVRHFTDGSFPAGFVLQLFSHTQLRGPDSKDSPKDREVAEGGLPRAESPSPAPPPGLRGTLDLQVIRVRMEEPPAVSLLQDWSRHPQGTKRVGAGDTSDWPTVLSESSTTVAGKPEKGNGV
UniProt O75531: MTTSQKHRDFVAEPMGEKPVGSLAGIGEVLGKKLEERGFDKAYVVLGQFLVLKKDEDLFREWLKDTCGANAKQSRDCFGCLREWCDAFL
UniProt Q96GQ5: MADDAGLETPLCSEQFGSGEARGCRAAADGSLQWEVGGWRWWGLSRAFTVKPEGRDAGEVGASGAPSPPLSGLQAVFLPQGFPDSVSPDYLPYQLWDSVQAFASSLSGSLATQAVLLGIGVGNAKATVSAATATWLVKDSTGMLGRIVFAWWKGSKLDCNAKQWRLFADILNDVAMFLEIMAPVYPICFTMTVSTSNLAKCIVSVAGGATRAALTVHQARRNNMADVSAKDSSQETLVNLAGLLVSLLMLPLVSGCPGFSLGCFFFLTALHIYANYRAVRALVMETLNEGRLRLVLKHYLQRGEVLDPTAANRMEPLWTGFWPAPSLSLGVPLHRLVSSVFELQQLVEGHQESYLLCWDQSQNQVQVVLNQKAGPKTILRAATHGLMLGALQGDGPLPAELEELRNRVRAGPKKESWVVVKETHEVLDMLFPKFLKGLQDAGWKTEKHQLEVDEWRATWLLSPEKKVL
UniProt Q4ZIN3: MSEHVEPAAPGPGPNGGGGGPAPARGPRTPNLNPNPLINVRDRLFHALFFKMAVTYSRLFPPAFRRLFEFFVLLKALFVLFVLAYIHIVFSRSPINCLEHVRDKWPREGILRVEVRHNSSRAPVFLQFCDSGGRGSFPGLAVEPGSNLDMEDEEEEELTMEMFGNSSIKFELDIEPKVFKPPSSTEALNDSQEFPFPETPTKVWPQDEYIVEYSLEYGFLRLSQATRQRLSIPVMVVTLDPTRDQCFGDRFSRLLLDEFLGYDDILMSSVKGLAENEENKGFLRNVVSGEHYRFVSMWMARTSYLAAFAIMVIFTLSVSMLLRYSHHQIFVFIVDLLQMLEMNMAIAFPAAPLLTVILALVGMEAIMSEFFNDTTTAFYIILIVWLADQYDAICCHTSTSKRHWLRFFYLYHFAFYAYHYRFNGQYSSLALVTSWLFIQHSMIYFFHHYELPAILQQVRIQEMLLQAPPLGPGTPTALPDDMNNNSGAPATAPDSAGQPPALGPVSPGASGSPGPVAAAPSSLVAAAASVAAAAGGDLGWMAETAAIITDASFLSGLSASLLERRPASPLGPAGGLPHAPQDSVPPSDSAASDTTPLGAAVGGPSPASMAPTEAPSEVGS
UniProt Q99622: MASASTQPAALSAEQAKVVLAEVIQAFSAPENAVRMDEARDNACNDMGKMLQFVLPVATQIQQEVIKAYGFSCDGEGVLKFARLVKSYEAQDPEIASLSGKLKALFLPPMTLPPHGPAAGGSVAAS
UniProt Q12982: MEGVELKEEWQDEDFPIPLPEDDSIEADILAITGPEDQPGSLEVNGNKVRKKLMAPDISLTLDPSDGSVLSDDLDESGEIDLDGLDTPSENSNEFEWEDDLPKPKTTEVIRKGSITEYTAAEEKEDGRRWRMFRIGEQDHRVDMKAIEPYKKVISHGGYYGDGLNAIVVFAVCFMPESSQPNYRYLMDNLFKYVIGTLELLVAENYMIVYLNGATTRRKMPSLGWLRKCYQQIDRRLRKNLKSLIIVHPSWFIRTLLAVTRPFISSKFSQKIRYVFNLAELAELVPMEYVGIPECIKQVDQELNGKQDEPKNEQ
UniProt P61421, whole entry: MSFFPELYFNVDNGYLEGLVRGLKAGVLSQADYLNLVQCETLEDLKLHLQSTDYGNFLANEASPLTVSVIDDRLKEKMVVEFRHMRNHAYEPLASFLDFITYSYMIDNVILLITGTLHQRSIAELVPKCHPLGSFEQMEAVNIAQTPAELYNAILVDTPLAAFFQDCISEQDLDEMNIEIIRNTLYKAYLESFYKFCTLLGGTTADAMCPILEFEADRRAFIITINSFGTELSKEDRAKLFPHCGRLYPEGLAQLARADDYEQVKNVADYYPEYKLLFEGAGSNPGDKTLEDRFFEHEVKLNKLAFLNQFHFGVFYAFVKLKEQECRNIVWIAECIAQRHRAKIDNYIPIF
UniProt P54132: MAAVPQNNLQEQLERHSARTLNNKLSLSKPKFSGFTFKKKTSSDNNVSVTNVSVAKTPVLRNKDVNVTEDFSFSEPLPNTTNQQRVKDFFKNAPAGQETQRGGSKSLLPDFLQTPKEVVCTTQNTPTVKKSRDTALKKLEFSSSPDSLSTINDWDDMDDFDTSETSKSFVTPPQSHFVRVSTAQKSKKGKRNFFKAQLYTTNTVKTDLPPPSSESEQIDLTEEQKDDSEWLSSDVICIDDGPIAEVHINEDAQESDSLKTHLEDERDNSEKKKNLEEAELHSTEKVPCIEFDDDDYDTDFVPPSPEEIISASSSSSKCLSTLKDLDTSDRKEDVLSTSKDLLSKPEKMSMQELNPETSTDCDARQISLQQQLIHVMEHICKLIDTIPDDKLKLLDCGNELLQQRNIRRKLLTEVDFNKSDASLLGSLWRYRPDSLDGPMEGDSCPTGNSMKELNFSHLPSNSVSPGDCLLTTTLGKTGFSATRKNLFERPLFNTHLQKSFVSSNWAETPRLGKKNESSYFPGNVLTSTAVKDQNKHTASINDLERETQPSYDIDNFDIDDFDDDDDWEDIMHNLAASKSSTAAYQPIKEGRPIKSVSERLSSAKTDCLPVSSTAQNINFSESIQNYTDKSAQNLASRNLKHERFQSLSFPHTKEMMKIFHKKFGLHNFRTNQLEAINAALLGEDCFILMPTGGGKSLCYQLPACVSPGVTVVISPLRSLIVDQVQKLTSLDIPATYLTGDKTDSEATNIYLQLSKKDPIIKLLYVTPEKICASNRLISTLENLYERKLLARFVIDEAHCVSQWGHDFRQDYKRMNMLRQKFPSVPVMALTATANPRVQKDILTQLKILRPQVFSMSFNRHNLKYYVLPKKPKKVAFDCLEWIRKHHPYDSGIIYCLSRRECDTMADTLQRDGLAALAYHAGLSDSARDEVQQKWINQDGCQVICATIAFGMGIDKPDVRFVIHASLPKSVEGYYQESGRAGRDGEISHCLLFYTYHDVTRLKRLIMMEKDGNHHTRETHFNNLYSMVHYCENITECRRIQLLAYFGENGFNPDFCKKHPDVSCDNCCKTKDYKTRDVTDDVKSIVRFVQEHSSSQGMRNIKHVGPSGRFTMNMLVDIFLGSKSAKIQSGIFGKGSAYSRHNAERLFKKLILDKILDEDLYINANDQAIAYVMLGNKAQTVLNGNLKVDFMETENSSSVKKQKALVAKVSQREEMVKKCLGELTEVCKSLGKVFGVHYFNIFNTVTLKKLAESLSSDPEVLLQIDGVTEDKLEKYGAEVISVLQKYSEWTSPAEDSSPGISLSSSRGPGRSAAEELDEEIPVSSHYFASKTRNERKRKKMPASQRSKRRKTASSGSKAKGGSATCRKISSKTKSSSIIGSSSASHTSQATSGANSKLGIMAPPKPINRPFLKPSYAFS

The other results are listed elsewhere or left out.
These targets were tested with COc1ccc(Cn2ccc3cc(C)c(C(=O)NO)cc32)cc1 (assay: dose-dependent thermal stabilisation call (2D-TPP, DLPTP, 10% FDR) (binary (1 = stabilised)); higher = stabilised by the compound). Conditions: system: HL-60 intact cells; concentration range 0.04-10 µM.
Procedure: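 2D thermal proteome profiling in intact HL-60 cells treated with BRD-3811 (0, 0.04, 0.29, 2, 10 uM) for 90 min at 37 C, then heated 3 min at one of 12 temperatures (42-63.9 C). Soluble protein was quantified by TMT10 MS. The value is the DLPTP call of the paper: dose-dependent thermal stabilisation over all temperatures at 10% FDR (F-test of a dose-response against a flat model); one experiment, one call per tested protein.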
With ATP13A3 (UniProt Q9H7F0) the “dose-dependent thermal stabilisation call” value was inactive: 0. In the case of C14ORF21 (UniProt Q86U38), the “dose-dependent thermal stabilisation call” value is reported as inactive: 0. In the case of C12ORF10 (UniProt Q9HB07), the “dose-dependent thermal stabilisation call” value is reported as inactive: 0. With BCL10 (UniProt O95999) the “dose-dependent thermal stabilisation call” value was inactive: 0. C14ORF159 (UniProt Q7Z3D6) was tested, and the “dose-dependent thermal stabilisation call” value was inactive: 0. With BARD1 (UniProt Q99728) the “dose-dependent thermal stabilisation call” value was inactive: 0. With C19ORF63 (UniProt Q5UCC4) the “dose-dependent thermal stabilisation call” value was inactive: 0. C11ORF67 (UniProt Q9H7C9) was tested, and the “dose-dependent thermal stabilisation call” value was inactive: 0. BIN2 (UniProt Q9UBW5) was tested, and the “dose-dependent thermal stabilisation call” value was inactive: 0. With BXDC2 (UniProt Q8TDN6) the “dose-dependent thermal stabilisation call” value was inactive: 0. With C12ORF30 (UniProt Q14CX7) the “dose-dependent thermal stabilisation call” value was inactive: 0. In the case of ATPBD3 (UniProt Q7Z7A3), the “dose-dependent thermal stabilisation call” value is reported as inactive: 0. For BOLA2 (UniProt Q9H3K6), the “dose-dependent thermal stabilisation call” value was inactive: 0. BPNT1 (UniProt O95861) was tested, and the “dose-dependent thermal stabilisation call” value was inactive: 0. In the case of BID (UniProt P55957), the “dose-dependent thermal stabilisation call” value is reported as inactive: 0. In the case of BAG4 (UniProt O95429), the “dose-dependent thermal stabilisation call” value is reported as inactive: 0. With ATP5F1 (UniProt P24539) the “dose-dependent thermal stabilisation call” value was inactive: 0. BUB1B (UniProt O60566) was tested, and the “dose-dependent thermal stabilisation call” value was inactive: 0. In the case of BRAP (UniProt Q7Z569), the “dose-dependent thermal stabilisation call” value is reported as inactive: 0. ATOX1 (UniProt O00244) was tested, and the “dose-dependent thermal stabilisation call” value was inactive: 0. With ATP6V0A2 (UniProt Q9Y487) the “dose-dependent thermal stabilisation call” value was inactive: 0. In the case of C11ORF84 (UniProt Q9BUA3), the “dose-dependent thermal stabilisation call” value is reported as inactive: 0. With UniProt B4E0S5_HUMAN the “dose-dependent thermal stabilisation call” value was inactive: 0. For AZI1 (UniProt Q9UPN4), the “dose-dependent thermal stabilisation call” value was inactive: 0. BANF1 (UniProt O75531) was tested, and the “dose-dependent thermal stabilisation call” value was inactive: 0. For C16ORF58 (UniProt Q96GQ5), the “dose-dependent thermal stabilisation call” value was inactive: 0. With BRCA2 (UniProt P51587) the “dose-dependent thermal stabilisation call” value was inactive: 0. In the case of BIRC6 (UniProt Q9NR09), the “dose-dependent thermal stabilisation call” value is reported as inactive: 0. For C11ORF31 (UniProt Q8IZQ5), the “dose-dependent thermal stabilisation call” value was inactive: 0. In the case of C12ORF26 (UniProt Q8N6Q8), the “dose-dependent thermal stabilisation call” value is reported as inactive: 0. UniProt B4DNJ8_HUMAN was tested, and the “dose-dependent thermal stabilisation call” value was inactive: 0. In the case of BCAP29 (UniProt Q9UHQ4), the “dose-dependent thermal stabilisation call” value is reported as inactive: 0. For C19ORF6 (UniProt Q4ZIN3), the “dose-dependent thermal stabilisation call” value was inactive: 0. For BUB3 (UniProt O43684), the “dose-dependent thermal stabilisation call” value was inactive: 0. For UniProt B6HY63_HUMAN, the “dose-dependent thermal stabilisation call” value was inactive: 0. With C12ORF57 (UniProt Q99622) the “dose-dependent thermal stabilisation call” value was inactive: 0. BNIP2 (UniProt Q12982) was tested, and the “dose-dependent thermal stabilisation call” value was inactive: 0. In the case of ATP6V0D1 (UniProt P61421), the “dose-dependent thermal stabilisation call” value is reported as inactive: 0. With BLM (UniProt P54132) the “dose-dependent thermal stabilisation call” value was inactive: 0. For C18ORF8 (UniProt Q96DM3), the “dose-dependent thermal stabilisation call” value was inactive: 0.

Source: the supplement of paper PMC7666118
